Reference: PubChem BioAssay AID256 (DTP/NCI, 2004)
The list is a part of this screen's results and no random one: it is rich in T/C values a quarter to a half above the control, in often repeated tests (any T/C) and in doses without a T/C. Other doses and runs of a compound stand elsewhere. T/C is the treated group as % of the vehicle group. Some doses have a count of surviving animals in place of a T/C: the source files T/C as zero there, which appears to mark a toxic dose or a test without result, not a measured value. Some survivor counts are full or nearly so, which does not show that the dose was tolerated: survival well below the control is almost never listed, so the zero probably covers shortened survival too. Survivors were counted at the toxicity check, usually on the fifth day, unless a day is given; later deaths do not show. Schedule codes are those of the source, taken here to give the interval after Q, in days (D) or hours (H), and the number of doses after X. Some structures stand for samples that the source files as different forms (salt, stereo form or complex); doses refer to the form tested. For survival time, this PubChem deposit counts one and a half times the control or more as active, and values a quarter to a half above the control carry no call in these data; other NCI protocols may use other cut-offs.

Test system: CD2F1 mice, L1210 leukemia ip, survival T/C
Experiment: NCI In Vivo Anticancer Drug Screen. Data for tumor model L1210 Leukemia (intraperitoneal) in CD2F1 (CDF1) mice
Conditions: higher T/C = longer survival
Outline: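 In this screen, transplantable tumors were grown in mice given either the compound or its vehicle. Results were expressed as the treated measurement relative to the control measurement.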

[1] = T/C endpoint: mean survival time, dose: 400.0 mg/kg/injection, schedule: Q01DX009 (ip), vehicle: saline
[2] = T/C endpoint: mean survival time, dose: 200.0 mg/kg/injection, schedule: Q01DX001 (ip), vehicle: saline
[3] = T/C endpoint: mean survival time, dose: 400.0 mg/kg/injection, schedule: Q01DX001 (ip), vehicle: saline
[4] = T/C endpoint: mean survival time, dose: 100.0 mg/kg/injection, schedule: Q04DX003 (ip), vehicle: saline
[5] = T/C endpoint: mean survival time, dose: 200.0 mg/kg/injection, schedule: Q04DX003 (ip), vehicle: saline

## c1ccc(CC23CCCCC2N3)cc1 (stereo unspecified)
T/C endpoint: mean survival time, dose: 400.0 mg/kg/injection, schedule: Q01DX001 (ip), vehicle: saline sonified
  survivor count: 0 of 6

## COC(=O)C1=NC=NC1=[N+]=[N-]
T/C endpoint: mean survival time, dose: 40.0 mg/kg/injection, schedule: Q01DX001 (ip), vehicle: saline
  survivor count: 0 of 6

## NC(Cc1c[nH]c2ccc(N(CCCl)CCCl)cc12)C(=O)O (stereo unspecified)
T/C endpoint: mean survival time, dose: 0.25 mg/kg/injection, schedule: Q01DX010 (ip), vehicle: saline
  T/C: 142 % of control

## CC(C)C(O)(C(=O)O)C(C)O (stereo unspecified)
T/C endpoint: mean survival time, dose: 200.0 mg/kg/injection, schedule: Q01DX009 (ip), vehicle: water
  survivor count: 6 of 6

## O=[N+]([O-])c1cc(S(=O)(=O)O)cc([N+](=O)[O-])c1Cl
T/C endpoint: mean survival time, dose: 200.0 mg/kg/injection, schedule: Q01DX009 (ip), vehicle: saline
  survivor count: 1 of 6
[1]
  survivor count: 1 of 6

## O=C1C=CC(=O)N1c1ccc(Br)cc1 (tested in a mixture with another compound)
T/C endpoint: mean survival time, dose: 400.0 mg/kg/injection, schedule: Q01DX009 (ip), vehicle: acetone
  survivor count: 3 of 6

## CC(O)CCC(=O)c1ccoc1 (stereo unspecified)
T/C endpoint: median survival time, dose: 15.0 mg/kg/injection, schedule: Q03HX015 (ip), vehicle: saline + alcohol
  survivor count: 1 of 6
T/C endpoint: median survival time, dose: 30.0 mg/kg/injection, schedule: Q03HX015 (ip), vehicle: saline + alcohol
  survivor count: 0 of 6
T/C endpoint: median survival time, dose: 60.0 mg/kg/injection, schedule: Q03HX015 (ip), vehicle: saline + alcohol
  survivor count: 0 of 6

## NC(N)=NC(N)=Nc1ccc(Cl)c(Cl)c1
T/C endpoint: mean survival time, dose: 225.0 mg/kg/injection, schedule: Q01DX009 (ip), vehicle: saline
  survivor count: 3 of 6
T/C endpoint: mean survival time, dose: 335.0 mg/kg/injection, schedule: Q01DX009 (ip), vehicle: saline
  survivor count: 0 of 6

## O=C(C[n+]1ccccc1)c1ccccc1
[2]
  survivor count: 1 of 6
T/C endpoint: mean survival time, dose: 200.0 mg/kg/injection, schedule: Q04DX002 (ip), vehicle: saline with Tween-80
  survivor count: 0 of 3
[3]
  survivor count: 0 of 6
T/C endpoint: mean survival time, dose: 400.0 mg/kg/injection, schedule: Q04DX002 (ip), vehicle: saline with Tween-80
  survivor count: 0 of 3

## N#CC1CC=CCC1 (stereo unspecified)
T/C endpoint: mean survival time, dose: 50.0 mg/kg/injection, schedule: Q04DX003 (ip), vehicle: saline
  survivor count: 6 of 6
[4]
  survivor count: 3 of 6
[5]
  survivor count: 0 of 6

## OCc1ccc2[n+](c1)CCc1c-2[nH]c2ccccc12
T/C endpoint: mean survival time, dose: 100.0 mg/kg/injection, schedule: Q01DX001 (ip), vehicle: saline with Tween-80
  survivor count: 6 of 6
T/C endpoint: mean survival time, dose: 200.0 mg/kg/injection, schedule: Q01DX001 (ip), vehicle: saline with Tween-80
  survivor count: 0 of 6
T/C endpoint: mean survival time, dose: 400.0 mg/kg/injection, schedule: Q01DX001 (ip), vehicle: saline with Tween-80
  survivor count: 0 of 6

## CSc1cc(C)n2nnnc2n1
[2]
  survivor count: 0 of 3
[3]
  survivor count: 0 of 3

## [N-]=[N+]=NC1=C(Br)C(=O)OC1COC(=O)c1ccccc1 (stereo unspecified)
T/C endpoint: mean survival time, dose: 25.0 mg/kg/injection, schedule: Q04DX002 (ip), vehicle: saline with Tween-80
  survivor count: 3 of 3

## N#Cc1cn(C2OC(CO)C3OC32)c2ncnc(NC(=O)c3ccccc3)c12 (stereo unspecified)
T/C endpoint: mean survival time, dose: 400.0 mg/kg/injection, schedule: Q01DX005 (ip), vehicle: distilled water + Tween-80
  survivor count: 0 of 6

## CCC(c1ccc(OC)cc1)C(CC)c1ccc(O)c(CN2CCN(C)CC2)c1 (stereo unspecified)
T/C endpoint: mean survival time, dose: 200.0 mg/kg/injection, schedule: Q01DX009 (ip), vehicle: saline with Tween-80
  survivor count: 4 of 6
T/C endpoint: mean survival time, dose: 400.0 mg/kg/injection, schedule: Q01DX009 (ip), vehicle: saline with Tween-80
  survivor count: 1 of 6

## C/C=C/C[n+]1cccc2ccccc21
T/C endpoint: mean survival time, dose: 100.0 mg/kg/injection, schedule: Q04DX003 (ip), vehicle: saline sonified
  survivor count: 0 of 6
T/C endpoint: mean survival time, dose: 200.0 mg/kg/injection, schedule: Q04DX003 (ip), vehicle: saline sonified
  survivor count: 0 of 6
T/C endpoint: mean survival time, dose: 400.0 mg/kg/injection, schedule: Q04DX003 (ip), vehicle: saline sonified
  survivor count: 0 of 6

## CCCCCCCCCCCCOC(=O)C[n+]1cccc(C(=O)NC)c1
[4]
  survivor count: 1 of 6
[5]
  survivor count: 0 of 6
T/C endpoint: mean survival time, dose: 400.0 mg/kg/injection, schedule: Q04DX003 (ip), vehicle: saline
  survivor count: 0 of 6

## NC(=S)c1ccc(C(N)=S)cc1
T/C endpoint: mean survival time, dose: 400.0 mg/kg/injection, schedule: Q01DX001 (ip), vehicle: Klucel (hydroxypropylcellulose) (HPC)
  survivor count: 1 of 3

## CCOC(=O)C1CN(Cc2ccccc2)CCC1=O (stereo unspecified)
[1]
  survivor count: 2 of 6
